Data source: PubChem BioAssay AID652259 (Drosophila RNAi Screening Center, 2013)
The deposit covers about 22,000 reagents; shown is an unselected part of those that have a named target and a result. Of all reagents, 233 (1.1%) were called active. 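Light values are raw, unnormalised plate reads; the ratio scores behind the reporter calls were not deposited.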 Reagents against one gene are numbered here. Names joined by + are all predicted targets of the reagent. Not stated in the record: the amount of reagent, the time to read-out, the dose of the treatment.

Aim: 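Identify new Wingless signalling regulators in fly cells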 (primary screen)
System: Drosophila clone 8 imaginal disc epithelial cells
Knock-down reagent: long dsRNA against Drosophila genes
Challenge: pathway stimulated by co-transfected Wingless expression plasmid
Read-out: 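Dual luciferase reads per well after Wingless plasmid stimulation: reporter firefly light and Renilla control light; activity is firefly divided by Renilla, a ratio not deposited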
Reading the numbers: firefly reporter light: higher = more Wg reporter light, before normalisation; Renilla control light: higher = more transfected or surviving cells
Hit rule: 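Strong candidates differ from their plate mean by at least two out of four per-plate statistical tests; weak candidates meet just one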
Meaning of the calls: active = candidate regulator (raises or lowers reporter); inactive = not a candidate

no.	Target gene	reagent	reporter change call, replicate 1	firefly reporter light, replicate 1	firefly reporter light, replicate 2	Renilla control light, replicate 1	Renilla control light, replicate 2	call
1	CG14877 (GeneID 41929)	1		13958		2806		inactive
2	CG6465 (GeneID 41274)	1		7331		2520		inactive
3	CHKov2 (GeneID 43068)	1		3376	3989	1540	618	inactive
4	CG4461 (GeneID 39074)	1		5585		2336		inactive
5	Stat92E (GeneID 42428)	1		2396	4712	965	1301	inactive
6	CG8064 (GeneID 42196)	1		1942	2962	1200	1420	inactive
7	Indy-2 + CG33934	1		2404	7341	1232	2294	inactive
8	Indy-2 + CG33934	2		13589		3933		inactive
9	snRNA:U1:95Cc + CG43285 (retired record)	1		2780		853		inactive
10	CG9776 (GeneID 40546)	1		10616		4209		inactive
11	CG15142 (GeneID 35059)	1		1476	5383	699	2236	inactive
12	tll (GeneID 43656)	1		6896		2108		inactive
13	CG13380 + CG4174	1		4088		1496		inactive
14	CG13380 + CG4174	2		5304		2681		inactive
15	alpha-Man-Ic (GeneID 318624)	1		6.31e5	5.48e5	2.98e5	2.12e5	inactive
16	l(2)03659 (GeneID 47905)	1		3072	8442	1027	3158	inactive
17	l(2)03659 (GeneID 47905)	2		2432	7170	651	2396	inactive
18	CG13699 (GeneID 40008)	1		5933		2628		inactive
19	AP-1mu (GeneID 41150)	1		6426		1896		inactive
20	Mst84Dc (GeneID 40887)	1		23459		4332		inactive
21	CG13067 (GeneID 39785)	1		9617		3830		inactive
22	Ugt37A3 (GeneID 41574)	1		21888		6993		inactive
23	MFS18 (GeneID 33650)	1		14324		5536		inactive
24	CG9902 (GeneID 32622)	1		17275		7665		inactive
25	Hsp60A (GeneID 32045)	1		6987	10893	1353	3001	inactive
26	Hmu (GeneID 43294)	1		4812		3126		inactive
27	CG9173 (GeneID 38165)	1		5376		2784		inactive
28	CG1902 (GeneID 35993)	1		8659		2664		inactive
29	Osi12 (GeneID 40766)	1		17304		2163		inactive
30	CG17683 (GeneID 3355011)	1		10032		6986		inactive
31	Nprl2 (GeneID 32677)	1		2356	5572	736	1576	inactive
32	CG31823 (GeneID 326163)	1		2956	7441	1129	3458	inactive
33	CG8839 (GeneID 36340)	1		6679		1628		inactive
34	v (GeneID 32026)	1		2240	6086	640	1917	inactive
35	Mpcp2 (GeneID 39587)	1		4982		2608		inactive
36	CheA84a (GeneID 3771856)	1		3801		1659		inactive
37	ReepB (GeneID 36569)	1		13590		4412		inactive
38	CG5181 (GeneID 34018)	1		13970		5020		inactive
39	tub (GeneID 40554)	1		9552		3904		inactive
40	tub (GeneID 40554)	2		6.39e5	6.61e5	2.02e5	2.53e5	inactive
41	CG1537 (GeneID 32037)	1		24608		11740		inactive
42	CG32413 (GeneID 318018)	1		4.90e5	4.76e5	2.51e5	1.93e5	inactive
43	CG3651 (GeneID 35440)	1		2435	3761	902	1333	inactive

Sorted by “Renilla control light, replicate 1” (lowest first): some entries from above.
Target gene	reagent	reporter change call, replicate 1	firefly reporter light, replicate 1	firefly reporter light, replicate 2	Renilla control light, replicate 1	Renilla control light, replicate 2	call
tub (GeneID 40554)	1		9552		3904		inactive
ReepB (GeneID 36569)	1		13590		4412		inactive
CG5181 (GeneID 34018)	1		13970		5020		inactive
tub (GeneID 40554)	2		6.39e5	6.61e5	2.02e5	2.53e5	inactive

The results go on.
no.	Target gene	reagent	reporter change call, replicate 1	firefly reporter light, replicate 1	firefly reporter light, replicate 2	Renilla control light, replicate 1	Renilla control light, replicate 2	call
44	Cyp18a1 (GeneID 32858)	1		12805		11307		inactive
45	CG10337 (GeneID 35247)	1		2893	6476	850	2808	inactive
46	CG7582 (GeneID 43492)	1		6058		2468		inactive
47	cysu (GeneID 42100)	1		12468		3031		inactive
48	Mnat9 (GeneID 43726)	1		14608		12391		inactive
49	Cyp308a1 (GeneID 32859)	1		27168		14317		inactive
50	Cdc45 (GeneID 31052)	1		2470	5622	897	1652	inactive
51	Cdc45 (GeneID 31052)	2		22016		19328		inactive
52	CG32219 (GeneID 317922)	1		3866		1435		inactive
53	Rbp9 (GeneID 33498)	1		2320	6176	1088	1429	inactive
54	Rbp9 (GeneID 33498)	2	Wg reporter activity raised	16337		2081		active
55	rdhB (GeneID 42614)	1		1740	5616	693	1669	inactive
56	Ir54a + sub	1		5712		2141		inactive
57	mRpL11 (GeneID 41757)	1		12573		2240		inactive
58	CG18540 (GeneID 37097)	1		8905		1796		inactive
59	loco (GeneID 42672)	1		22419		16452		inactive
60	loco (GeneID 42672)	2		1251	5649	794	1762	inactive
61	Chro (GeneID 40508)	1		6412		1610		inactive
62	CG4073 (GeneID 41284)	1		18385		4262		inactive
63	CG13796 + CG31904	1		4.48e5	5.28e5	1.90e5	2.20e5	inactive
64	Hsl (GeneID 37289)	1		9223		2402		inactive
65	mu2 (GeneID 38257)	1		19656		7575		inactive
66	mu2 (GeneID 38257)	2		4.43e5	4.75e5	1.85e5	1.74e5	inactive
67	CG14826 (GeneID 38791)	1		2425	5110	1479	2761	inactive
68	Pkc53E (GeneID 48311)	1		16524		8756		inactive
69	Pkc53E (GeneID 48311)	2		7878		3548		inactive
70	Tep5Psi (GeneID 35250)	1		3314	5920	804	2823	inactive
71	Tep5Psi (GeneID 35250)	2		2903	5876	928	2070	inactive
72	Ccz1 (GeneID 38455)	1		5266		2144		inactive
73	CG13813 (GeneID 40218)	1		8419		1904		inactive
